According to patent US20250312289A1, “METHODS AND COMPOSITIONS COMPRISING TOBACCO MILD GREEN MOSAIC VIRUS (TMGMV)” (priority 2022, published 2025):
“And” between values parts separate entries of the source, which are not always exact repeats. Identical values can stand only once. At least one structure is not confirmed: it was looked up by name or label, or the drawing left a doubt. Some results were stated once for a whole list of compounds, not compound by compound.

What was measured:
TMGMV [1] = assay: Quantitative TEM width analysis of AI-loaded TMGMV prepared via pH and DMSO methods, Example 6; assay type: physicochemical, Tobacco Mild Green Mosaic Virus; conditions: negative-stain TEM, native 15.7 nm; for width of AI-loaded TMGMV rods: pH and DMSO methods
Description: (§1) Loading of AI into TMGMV via the “pH method” was performed. TMGMV at a concentration of 1 mg mL^−1 in 10 mM KP buffer at pH 7.5 was kept for 10 days at 4° C. The following AIs were used: fluopyram and clothianidin, (BASF, Berkeley, CA, USA), rifampicin and ivermectin (BioVision; Milpitas, CA, USA). Cy5 (Lumiprobe; Cockeysville, MD, USA) and doxorubicin (ApexBio; Houston, TX, USA) were also studied as proof of concept (fluorescent molecule and cancer chemotherapy). The AI was added to TMGMV by adding an excess of 10:1 AI:coat protein (CP; each TMGMV rod is assembled from ˜2,100 identical CPs) every day until a ratio of 100:1 was reached. During this process the reaction was kept mixing on a rotary shaker. 1 mL aliquots were obtained each day for further analysis.
Loading of AI into TMGMV via the “DMSO method” was performed. TMGMV in 10 mM KP buffer (pH 7.2) was diluted to 5 mg mL-1 in 2 mL of buffer and transferred to a 25 mL beaker and magnetically stirred at 300 rpm at room temperature. A solution of DMSO and 10 mM KP was added dropwise to dilute the solution to a 20% (v/v) concentration of DMSO and 2 mg mL-1 of TMGMV. Aliquots of the AIs were added dropwise to the solution to prevent precipitation. The solutions were left to stir at room temperature for 24 hours. […]
TMGMV samples were diluted to a concentration of 0.05 mg mL-1 and absorbed onto carbon-coated TEM grids (Electron Microscopy Sciences, Hatfield, PA, USA). […] To determine the change in width of the nanoparticles, the width of sections of 100 nm in length was measured for standardization purposes. Five different sections were measured per micrography and 30 of them in total per sample. Subsequently, for the complete particle, the length, the perimeter and the area were measured, to later calculate the average width from the perimeter.
TEM imaging and quantitative TEM imaging analysis of the AI-loaded TMGMV nanoparticles prepared by the pH method and the DMSO method was performed. […] To gain insights into the degree of structural changes, quantitative TEM image analysis was performed comparing native vs. the AI-laden TMGMV. […]

TMGMV [2] = assay: Quantification of loaded AI in TMGMV by HPLC; assay type: physicochemical, Tobacco Mild Green Mosaic Virus; conditions: for AI per TMGMV loaded: both pH and DMSO methodologies; for Detected in sample / Molecules per CP / Molecules per virion: HPLC
Description: as §1
After AI loading, the aliquots were spin-filtered using 100K molecular weight cut-off 0.5 mL filters (MilliporeSigma, Burlington, MA, USA). 200 μL of the aliquot and 250 μL of KP solution were added and then centrifuged at 16,160×g for 5 minutes at 4° C., the flow-through was discarded, and then 450 μL of KP was added and centrifuged again, this step was repeated 3 times. After the third centrifugation, the filter was inverted in a new tube and centrifuged at 1000×g for 2 minutes, to recover the supernatant and carry out the subsequent characterization.
Loading of AI into TMGMV via the “DMSO method” was performed. TMGMV in 10 mM KP buffer (pH 7.2) was diluted to 5 mg mL-1 in 2 mL of buffer and transferred to a 25 mL beaker and magnetically stirred at 300 rpm at room temperature. A solution of DMSO and 10 mM KP was added dropwise to dilute the solution to a 20% (v/v) concentration of DMSO and 2 mg mL-1 of TMGMV. Aliquots of the AIs were added dropwise to the solution to prevent precipitation. The solutions were left to stir at room temperature for 24 hours. The samples were collected and spin filtered as described above before being stored at 4° C.
For HPLC, AI was extracted from TMGMV. In brief, the concentration of TMGMV samples was adjusted to 1.2 mg mL-1 in KP. The solution was diluted 4-fold into a 1:1 acetonitrile/:methanol mixture and vortexed for 30 seconds. The solution was centrifuged at 10,000×g for 10 minutes at 4° C. and the organic phase (bottom fraction) was collected and transferred to an HPLC 2 mL glass screw top vial (SureSTART, Thermo Scientific, Waltham, MA, USA).
After a 10-fold dilution in acetonitrile, the extracted samples were injected at 500 μL and run on 5 μm C18 column (20×100 mm) using a Shimadzu LC-40 HPLC system (Columbia, MD, USA). The method was run at 0.5 mL min-1 in a gradient of acetonitrile and 0.02% (v/v) phosphoric acid for 15 minutes per sample. A photodiode array was used to collect absorbance values at 280 nm (fluopyram), 269 nm (clothianidin), 225 nm (ivermectin), and 330 nm (rifampicin). The absorbance values were fitted to a standard curve to identify sample concentration with N=3.

[3] = DMSO method (20% v/v, 24 hours)

| Structure (SMILES) | width of AI-loaded TMGMV rods (TMGMV [1]) | AI per TMGMV loaded (TMGMV [2]) | width increase compared to negatively-stained native TMGMV (TMGMV [1]) | increase in loading using DMSO method vs pH method (TMGMV [2]; 24 hour DMSO vs 10-day pH) | Detected in sample (TMGMV [2]; [3]) | Molecules per CP (TMGMV [2]; [3]) | Molecules per virion (TMGMV [2]; [3]) | Detected in sample (TMGMV [2]; pH method (pH 7.5, 10 days)) | Molecules per CP (TMGMV [2]; pH method (pH 7.5, 10 days)) | Molecules per virion (TMGMV [2]; pH method (pH 7.5, 10 days)) |
| --- | --- | --- | --- | --- | --- | --- | --- | --- | --- | --- |
| CN/C(=N\[N+](=O)[O-])NCc1cnc(Cl)s1 [Clothianidin, clothianidin] | 22-27 nm | up to 1000 | – | – | – | – | – | – | – | – |
| CO[C@H]1/C=C/O[C@@]2(C)Oc3c(C)c(O)c4c(O)c(c(/C=N/N5CCN(C)CC5)c(O)c4c3C2=O)NC(=O)/C(C)=C\C=C\[C@H](C)[C@H](O)[C@@H](C)[C@@H](O)[C@@H](C)[C@H](OC(C)=O)[C@@H]1C [Rifampicin, rifampicin] | 22-27 nm | up to 1000 | 73% | 1.5 fold | 7.52 µg/mL | 0.51 | 1104 and 1104.2 | 4.9 µg/mL | 0.35 | 737.66 |
